Measurements as given in patent US20170100454A1 (VANDERBILT UNIVERSITY, published 2017).
These are yes or no findings as the source states them, for the method shown. Binding seen in cells or lysates may run through a third protein. Some results given as binding are weak or reduced against the parent protein; the word gives no strength. One block for each binder: values may come before it.

Amino acid sequences for entries named in this document (tags omitted). A change or cut given only in a name is not applied to a line headed by its entry.
UniProt P52294: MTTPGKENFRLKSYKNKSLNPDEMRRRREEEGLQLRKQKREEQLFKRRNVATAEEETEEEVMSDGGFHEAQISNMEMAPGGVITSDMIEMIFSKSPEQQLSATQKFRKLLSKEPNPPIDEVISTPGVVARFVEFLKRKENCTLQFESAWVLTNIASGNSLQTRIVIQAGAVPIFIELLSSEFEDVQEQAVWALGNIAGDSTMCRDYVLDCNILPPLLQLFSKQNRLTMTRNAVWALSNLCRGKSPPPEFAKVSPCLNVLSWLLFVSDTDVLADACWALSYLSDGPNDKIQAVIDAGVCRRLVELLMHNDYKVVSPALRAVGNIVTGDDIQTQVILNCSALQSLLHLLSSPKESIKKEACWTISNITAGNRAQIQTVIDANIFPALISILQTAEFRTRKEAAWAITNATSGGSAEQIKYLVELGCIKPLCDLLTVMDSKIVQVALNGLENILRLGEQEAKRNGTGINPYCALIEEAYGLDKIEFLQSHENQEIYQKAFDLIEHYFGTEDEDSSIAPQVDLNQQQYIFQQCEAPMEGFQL

Experiments:
[1] = target: T1, Endogenous human importin alpha 3 (human, UniProt O00629 2-521); experiment: pull-down: biotinylated peptide in Jurkat T whole cell lysate, streptavidin-coated beads, immunoblot
T1 construct: mature; also called Imp α3
T1 sequence (looked up): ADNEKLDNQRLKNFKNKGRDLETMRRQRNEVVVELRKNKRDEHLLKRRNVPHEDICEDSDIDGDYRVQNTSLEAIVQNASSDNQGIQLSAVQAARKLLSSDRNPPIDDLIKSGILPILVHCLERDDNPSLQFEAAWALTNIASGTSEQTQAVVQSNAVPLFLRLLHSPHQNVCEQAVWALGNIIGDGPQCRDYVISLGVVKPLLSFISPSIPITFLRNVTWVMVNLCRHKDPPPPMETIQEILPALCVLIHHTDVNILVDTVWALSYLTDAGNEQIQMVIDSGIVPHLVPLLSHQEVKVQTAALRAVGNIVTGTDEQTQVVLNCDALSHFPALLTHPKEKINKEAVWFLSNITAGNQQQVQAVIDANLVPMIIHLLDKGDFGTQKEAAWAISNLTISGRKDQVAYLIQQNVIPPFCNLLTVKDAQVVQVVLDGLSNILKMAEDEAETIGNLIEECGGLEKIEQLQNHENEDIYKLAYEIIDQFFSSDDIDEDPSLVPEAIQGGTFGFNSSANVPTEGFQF

[2] = target: T2, Endogenous human importin alpha 4 (human, UniProt O00505 2-521); experiment: as above
T2 construct: mature; also called Imp α4
T2 sequence (looked up): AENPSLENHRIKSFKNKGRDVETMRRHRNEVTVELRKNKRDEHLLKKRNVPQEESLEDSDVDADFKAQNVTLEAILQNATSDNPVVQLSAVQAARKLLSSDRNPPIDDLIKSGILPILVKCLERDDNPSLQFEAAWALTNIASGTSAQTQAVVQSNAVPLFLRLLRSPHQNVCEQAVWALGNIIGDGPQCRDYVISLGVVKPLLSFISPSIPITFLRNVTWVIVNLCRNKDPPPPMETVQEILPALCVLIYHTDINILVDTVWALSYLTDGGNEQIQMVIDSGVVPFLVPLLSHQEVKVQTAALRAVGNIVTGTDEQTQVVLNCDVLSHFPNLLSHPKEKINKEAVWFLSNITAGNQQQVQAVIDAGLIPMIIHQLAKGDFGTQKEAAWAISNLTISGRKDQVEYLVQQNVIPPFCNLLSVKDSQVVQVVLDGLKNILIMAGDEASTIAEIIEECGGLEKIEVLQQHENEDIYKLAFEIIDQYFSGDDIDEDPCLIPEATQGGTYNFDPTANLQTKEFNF

[3] = target: T3, Endogenous human importin alpha 5 (human, UniProt P52294 1-529 at identity 1.00)); experiment: as above
T3 construct: Endogenous protein in whole cell lysates, and in Hep-G2 cells for the functional rows; also called Imp α5; KPNA1

[4] = target: T3, Endogenous human importin alpha 5; experiment: pull-down from whole cell lysates of three cell types, immunoblot
[5] = target: T1, Endogenous human importin alpha 3; experiment: as above
[6] = target: T3, Endogenous human importin alpha 5; experiment: pull-down with biotinylated peptide and SA beads from whole cell lysates (Jurkat T, HeLa S3, EA.hy926), immunoblot
[7] = target: T1, Endogenous human importin alpha 3; experiment: as above
[8] = target: T2, Endogenous human importin alpha 4; experiment: pull-down with biotinylated peptide and SA beads from Jurkat T cell lysate, immunoblot (FIG. 7)
[9] = target: T4, Endogenous human importin alpha 7 (human, UniProt O60684 1-536); experiment: as above
T4 construct: mature; also called Imp α7

[10] = target: T3, Endogenous human importin alpha 5; experiment: as above
[11] = target: T1, Endogenous human importin alpha 3; experiment: as above

Binder: VELRKNKRDEHLLKKRNVPQE (biotinylated (position and linker not stated)) [Biotinylated AR4 peptide (auto-inhibitory region of Imp α4)]
binding [1]: binds | binding [2]: binds | binding [3]: binds

Binder: VELRKNKRDEHLLKRRNVPHE (biotinylated (position and linker not stated)) [Biotinylated AR3 peptide (auto-inhibitory region of Imp α3)]
binding [1]: binds | binding [2]: binds | binding [3]: binds

Binder: LQLRKQKREEQLFKRRNVATA (biotinylated (position and linker not stated)) [Biotinylated AR5 peptide (auto-inhibitory region of Imp α5)]
binding [2]: binds

Further lines, results first:

binding [4]: binds | binding [5]: binds | binding [6]: binds | binding [7]: binds
Binder: GGGGGVQRKRQKLMP (biotin at the NH2 terminus) [Biotinylated N50 peptide]

binding [8]: binds | binding [9]: binds | binding [10]: binds | binding [11]: binds
Binder: IQLRKQKREQQLFKRRNVELI (biotinylated (position and linker not stated)) [Biotinylated AR7 peptide (auto-inhibitory region of Imp α7)]
